Data as given in PubChem BioAssay AID1508597 (Cure First, 2020).
Test: 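Genes whose silencing sensitises or protects ovarian cancer cells against rucaparib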 (primary screen). Cell system: human ovarian carcinoma lines grown from tumours: OCI-P5x (papillary serous) and OCI-C5x (clear cell). Reagents: siRNA pool against human genes, 1.25 pmol siRNA per well. Time to read-out: 72 h or 96 h, depending on the cell culture. Challenge: rucaparib 20 µM (about IC30) or vehicle, present until read-out. Measured: 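Luminescent ATP-based viability assay read 72 or 96 h after transfection, depending on culture, given as normalised percent viability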. Reading the numbers: viability, normalised: higher = more viable cells remaining. Call rule: 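Active when normalised viability falls below 80 percent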. Meaning of the calls: active = viability under 80%; inactive = viability 80% or more.
Here is a random part of about 2,100 reagents. 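Calls flag viability under 80% in either arm, not effects specific to rucaparib; the reference for percent is not stated.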 Some reagents were tested in more than one well and are listed for each. No sequences are given here. Not given: the 100% reference.

| Gene | rucaparib or vehicle | cell line | technical replicate | viability, normalised (%) | Outcome |
| --- | --- | --- | --- | --- | --- |
| DDX1 | Rucaparib | OCI-C5x (clear cell) | 1 | 58.2 | active |
| DDX1 | Rucaparib | OCI-C5x (clear cell) | 1 | 44.6 | active |
| DDX1 | Rucaparib | OCI-C5x (clear cell) | 2 | 44.7 | active |
| DDX1 | Rucaparib | OCI-C5x (clear cell) | 2 | 40.1 | active |
| DDX1 | Rucaparib | OCI-C5x (clear cell) | 3 | 25.2 | active |
| DDX1 | Rucaparib | OCI-C5x (clear cell) | 3 | 54 | active |
| DDX1 | Rucaparib | OCI-P5x (serous) | 1 | 60.1 | active |
| DDX1 | Rucaparib | OCI-P5x (serous) | 1 | 70.7 | active |
| DDX1 | Rucaparib | OCI-P5x (serous) | 2 | 62.1 | active |
| DDX1 | Rucaparib | OCI-P5x (serous) | 2 | 62.2 | active |
| DDX1 | Rucaparib | OCI-P5x (serous) | 3 | 69.4 | active |
| DDX1 | Rucaparib | OCI-P5x (serous) | 3 | 56.1 | active |
| DDX1 | Vehicle | OCI-C5x (clear cell) | 1 | 30 | active |
| DDX1 | Vehicle | OCI-C5x (clear cell) | 1 | 51.5 | active |
| DDX1 | Vehicle | OCI-C5x (clear cell) | 2 | 28.7 | active |
| DDX1 | Vehicle | OCI-C5x (clear cell) | 2 | 61.7 | active |
| DDX1 | Vehicle | OCI-C5x (clear cell) | 3 | 28.3 | active |
| DDX1 | Vehicle | OCI-C5x (clear cell) | 3 | 54.5 | active |
| DDX1 | Vehicle | OCI-P5x (serous) | 1 | 56.7 | active |
| DDX1 | Vehicle | OCI-P5x (serous) | 1 | 57.9 | active |
| DDX1 | Vehicle | OCI-P5x (serous) | 2 | 55.1 | active |
| DDX1 | Vehicle | OCI-P5x (serous) | 2 | 63.6 | active |
| DDX1 | Vehicle | OCI-P5x (serous) | 3 | 55.4 | active |
| DDX1 | Vehicle | OCI-P5x (serous) | 3 | 70 | active |
| DDX43 | Rucaparib | OCI-C5x (clear cell) | 1 | 62.1 | active |
| DDX43 | Rucaparib | OCI-C5x (clear cell) | 2 | 53.6 | active |
| DDX43 | Rucaparib | OCI-C5x (clear cell) | 3 | 58.8 | active |
| DDX43 | Rucaparib | OCI-P5x (serous) | 1 | 58 | active |
| DDX43 | Rucaparib | OCI-P5x (serous) | 2 | 75.6 | active |
| DDX43 | Rucaparib | OCI-P5x (serous) | 3 | 78 | active |
| DDX43 | Vehicle | OCI-C5x (clear cell) | 1 | 50.2 | active |
| DDX43 | Vehicle | OCI-C5x (clear cell) | 2 | 47.1 | active |
| DDX43 | Vehicle | OCI-C5x (clear cell) | 3 | 62.4 | active |
| DDX43 | Vehicle | OCI-P5x (serous) | 1 | 85.9 | inactive |
| DDX43 | Vehicle | OCI-P5x (serous) | 2 | 78 | active |
| DDX43 | Vehicle | OCI-P5x (serous) | 3 | 83.6 | inactive |
| CLDN15 | Rucaparib | OCI-C5x (clear cell) | 1 | 45.2 | active |
| CLDN15 | Rucaparib | OCI-C5x (clear cell) | 2 | 47.7 | active |
| CLDN15 | Rucaparib | OCI-C5x (clear cell) | 3 | 37.3 | active |
| CLDN15 | Rucaparib | OCI-P5x (serous) | 1 | 83.1 | inactive |
| CLDN15 | Rucaparib | OCI-P5x (serous) | 2 | 77.4 | active |
| CLDN15 | Rucaparib | OCI-P5x (serous) | 3 | 94 | inactive |
| CLDN15 | Vehicle | OCI-C5x (clear cell) | 1 | 56.7 | active |
| CLDN15 | Vehicle | OCI-C5x (clear cell) | 2 | 48.5 | active |
| CLDN15 | Vehicle | OCI-C5x (clear cell) | 3 | 56.8 | active |
| CLDN15 | Vehicle | OCI-P5x (serous) | 1 | 83.6 | inactive |
| CLDN15 | Vehicle | OCI-P5x (serous) | 2 | 81.2 | inactive |
| CLDN15 | Vehicle | OCI-P5x (serous) | 3 | 83.9 | inactive |
| BRSK1 | Rucaparib | OCI-C5x (clear cell) | 1 | 50.2 | active |
| BRSK1 | Rucaparib | OCI-C5x (clear cell) | 2 | 48.4 | active |
| BRSK1 | Rucaparib | OCI-C5x (clear cell) | 3 | 53.4 | active |
| BRSK1 | Rucaparib | OCI-P5x (serous) | 1 | 66 | active |
| BRSK1 | Rucaparib | OCI-P5x (serous) | 2 | 63.3 | active |
| BRSK1 | Rucaparib | OCI-P5x (serous) | 3 | 87 | inactive |
| BRSK1 | Vehicle | OCI-C5x (clear cell) | 1 | 54.4 | active |
| BRSK1 | Vehicle | OCI-C5x (clear cell) | 2 | 66.3 | active |
| BRSK1 | Vehicle | OCI-C5x (clear cell) | 3 | 47.7 | active |
| BRSK1 | Vehicle | OCI-P5x (serous) | 1 | 54.8 | active |
| BRSK1 | Vehicle | OCI-P5x (serous) | 2 | 65.6 | active |
| BRSK1 | Vehicle | OCI-P5x (serous) | 3 | 62.6 | active |
